Laboratory results taken from PubChem BioAssay AID540276 (National Center for Advancing Translational Sciences (NCATS), 2011).
Screen size: about 300,000 compounds; about 5,400 (1.8%) were called active. The inconclusive results got no clear call from the source; some entries with a clear call stand among them for comparison. Calls come from the whole dose curve; tested in HEK293 cells. Potencies of inconclusive entries are doubtful fits and often do not repeat.

Test: qHTS for inhibitors of binding or entry into cells for Marburg Virus
Conditions: Marburg virus pseudotyped entry inhibition, cell reporter; activity change, negative = inhibition: at 37.8 µM (top of the series) unless noted
% is set by controls: 0 for no effect and ±100 for the full control effect; potency is the fitted concentration of half-maximal effect.

| Structure (SMILES) | Potency | activity change, negative = inhibition |
| --- | --- | --- |
| Cc1cccc(OCc2n(CC(=O)OC3CC(C)CCC3C(C)C)c3ccccc3[n+]2C)c1 (configuration not stated) | active: 2.51 µM | – |
| Cc1cccc(C)c1NC(=O)CNC(=O)C(NC(=O)c1ccc(C(C)(C)C)cc1)C(C)C (configuration not stated) | inconclusive: 8.91 µM [inhibitor, partial curve, poor fit] | – |
| Cc1cccn2c(=O)c(C=O)c(N3CCN(C)CC3)nc12 | inconclusive: 6.31 µM [inhibitor, single point] | – |
| Cc1c(/C=N\NC(=O)c2ccc(F)cc2)cnn1C | inconclusive: 6.31 µM [activator, single point] | – |
| Clc1ccc(-c2cc(COc3ccccc3)on2)cc1 | inactive | – |
| C=C1C(C)C2C(Cc3ccccc3)NC(=O)C23C(OC(C)=O)C=CC(C)(O)CC(C)CC=CC3C1O (configuration not stated) | active: 3.98 µM | – |
| CCCCN(Cc1ccccc1)S(=O)(=O)c1cc(Br)cc2c1N(C(=O)C1CC1)CC2 | inactive | – |
| O=C(Nc1ccc2[nH]ncc2c1)c1ccccc1Cl | inconclusive: 8.91 µM [inhibitor, partial curve, poor fit] | – |
| COc1ccc(Cl)cc1S(=O)(=O)N(C)CC(=O)NCCCn1ccnc1 | inactive | – |
| O=C(OCn1nnc2ccccc2c1=O)c1cc(-c2ccccc2)nc2ccccc12 | inactive | – |
| COc1ccc(CNC(=O)C2CCN(c3nc(OC)nc(OC)n3)CC2)cc1 | inconclusive: 6.51 µM [inhibitor, single point] | – |
| CC[N+]1(C)CCC(=C2c3ccccc3CC(=O)c3sccc32)CC1 (configuration not stated) | inactive | – |
| CCC(CC)C(=O)Nc1ccc(S(=O)(=O)Nc2nccs2)cc1 | inconclusive: 3.55 µM [activator, single point] | – |
| Cc1ccc(S(=O)(=O)/N=C(/Nc2cccc3ccccc23)c2ccc(F)cc2)cc1 | inactive | – |
| COc1ccc(OC)c(C(=O)c2oc3ccccc3c2NC(C)=O)c1 | inconclusive: 20.6 µM [inhibitor, single point] | – |
| COc1cc(C(=O)Nc2ccc3c(c2)N(C(=O)CN2CCN(C)CC2)c2ccccc2CC3)cc(OC)c1OC | inconclusive: 35.5 µM [inhibitor, single point] | – |
| CCOc1ccc(-n2ccn3c(CC(C)CC(=O)O)nnc3c2=O)cc1 (configuration not stated) | inconclusive: 5.62 µM [activator, single point] | – |
| O=C(CSc1oc(-c2ccc(F)cc2)nc1S(=O)(=O)c1ccccc1)NCC1CCCO1 (configuration not stated) | inconclusive: 1.26 µM [inhibitor, single point] | – |
| Cc1sc(NC(=O)c2cccs2)c(C(N)=O)c1C | inactive | – |
| CCOC(=O)c1c(C)[nH]c(C(=O)OCc2ccccc2)c1C | inconclusive: 35.5 µM [inhibitor, single point] | – |
| COc1cc2ccccc2c2c1CCCC2=O | inactive | – |
| CCN(CC(=O)Nc1ccc(NC(C)=O)cc1)C(=O)/C=C/c1c(C)nn(-c2ccc(F)cc2)c1Cl | inconclusive: 3.98 µM [activator, single point] | – |
| COCCCNC(=O)Cn1cc(C(C)=O)c2ccccc21 | inconclusive: 0.231 µM [activator, single point] | – |

| Structure (SMILES) | Potency | activity change, negative = inhibition |
| --- | --- | --- |
| Cc1onc(-c2ccccc2)c1C(=O)N/N=C/c1cc2c(cc1Cl)OCO2 | inconclusive: 35.5 µM [inhibitor, single point] | – |
| CCOC(=O)c1c(C)n(CC(O)c2ccccc2)c2ccc(O)cc12 (configuration not stated) | inconclusive: 14.1 µM [inhibitor, partial curve, poor fit] | – |
| CCOC(=O)C1(CCOc2ccccc2)CCN(Cc2ccc(F)c(OC)c2)CC1 | inconclusive: 10 µM [inhibitor, partial curve, poor fit] | – |
| COc1ccc(-c2nc3c(c4c2C[C@H](c2ccccc2)OC4)CN(S(=O)(=O)c2ccc(NC(C)=O)cc2)CC3)c(C)c1 | inactive | – |
| COc1ccc(Nc2ccc(N3C(=O)CCCC3=O)cc2[N+](=O)[O-])cc1OC | inconclusive: 1 µM [inhibitor, full curve, poor fit] | – |
| Cc1c(C(=O)N2CCc3ccccc32)cnn1C | inconclusive: 1.26 µM [activator, partial curve, poor fit] | – |
| Cc1ccc2c(Cl)cc(Cl)c(OCC(=O)N3CCCC3)c2n1 | inactive | – |
| CCOC(=O)/C(C(=O)Nc1ccccc1Cl)=C1/NC(C)(C)Cc2ccccc21 | inconclusive: 25.9 µM [inhibitor, partial curve, poor fit] | – |
| CNC(=S)Nc1sc2c(c1C(=O)OC)CCC2 | inconclusive: 4.47 µM [activator, partial curve] | – |
| CN(c1ccccc1)S(=O)(=O)c1cccc(NC(=O)CN2CCCc3ccccc32)c1 | active: 8.91 µM | – |
| COc1ccc(-n2cc3ccc([N+](=O)[O-])cc3n2)cc1 | inconclusive: 15.8 µM [inhibitor, single point] | – |
| O=c1[nH]c(=S)n(Cc2ccc(F)cc2)c(O)c1/C=N/N1CCCCCC1 | inconclusive: 0.251 µM [inhibitor, full curve, poor fit] | – |
| O=C(CSc1nc2ccccc2[nH]1)Nc1ccc(N2CCOCC2)cc1 | inactive | – |
| O=C(O)/C=C/C(=O)Nc1ccccc1SC(F)(F)F | inactive | – |
| C[N+]1(CCCCC[N+]2(C)CCCC2)CCCC1 | inconclusive: 25.9 µM [activator, single point] | inconclusive: 14.4% [inhibitor] |
| COc1ccc(N2CCN(C(=O)c3ccc4c(c3)N(Cc3ccc(F)cc3)C(=O)c3ccccc3S4=O)CC2)cc1 (configuration not stated) | inconclusive: 5.62 µM [activator, single point] | – |
| O=C(c1cccnc1)C1CCCN(Cc2nc(Cc3ccccc3)no2)C1 (configuration not stated) | inconclusive: 35.5 µM [activator, single point] | – |
| CC(C)C(=O)NC(=S)Nc1ccccn1 | inconclusive: 2 µM [inhibitor, partial curve] | – |
| CCOc1ccccc1NC(=O)Nc1cccc(C(C)=O)c1 | inactive | – |
| O=C(N/N=C/c1cccc(OC(=O)c2ccc3c(c2)OCO3)c1)c1cncc(Br)c1 | inactive | – |
| O=c1c2ccccc2nc2n1CCC2 | inactive | – |
| O=C(CSCc1ccc(F)cc1)NC1CCCC1 | inactive | – |
| Cc1ccc(-c2csc(=Nc3ccccc3)n2Cc2ccc3c(c2)OCO3)cc1C | inconclusive: 12.6 µM [activator, partial curve, poor fit] | – |

Retrieved by structure from the list above (four):

| Structure (SMILES) | Potency | activity change, negative = inhibition |
| --- | --- | --- |
| O=C(N/N=C/c1cccc(OC(=O)c2ccc3c(c2)OCO3)c1)c1cncc(Br)c1 | inactive | – |
| Cc1c(/C=N\NC(=O)c2ccc(F)cc2)cnn1C | inconclusive: 6.31 µM [activator, single point] | – |
| CCOC(=O)c1c(C)n(CC(O)c2ccccc2)c2ccc(O)cc12 (configuration not stated) | inconclusive: 14.1 µM [inhibitor, partial curve, poor fit] | – |
| O=C(c1cccnc1)C1CCCN(Cc2nc(Cc3ccccc3)no2)C1 (configuration not stated) | inconclusive: 35.5 µM [activator, single point] | – |
